# ± gives the standard deviation. This is a selection; strong and weak results do not stand in their true shares. The uncertainty is large for many entries.
# System: MILI (PIWIL2) piRISC loaded with piRNA #2 (26 nt)
# Assay: pre-steady-state target cleavage rate (min^-1); MIWI and MILI are mouse PIWI proteins and EfPiwi is from a freshwater sponge; tags in brackets are library labels; higher = faster piRNA-guided slicing of the target
# Settings: guide: piRNA #2 5'p-UUAGGUAACCCAGUAGAUCCAGAGGA; auxiliary factor: 500 nM mouse GTSF1
# Method: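 Cleave-'n-Seq: a library of target RNAs (target site embedded in constant flanks, ACAGCATTCCGCGTTAGTGATATCCG... 5' flank; DNA-blocked outside the site) at 0.1 nM was incubated with 1 nM active mouse MILI or MIWI piRISC (synthetic 5'-monophosphorylated piRNA guide) with or without 500 nM mouse GTSF1 at 33 °C for 1 min to 16 h. Uncleaved targets were sequenced and normalised to non-target controls, and the pooled three trials were fitted to a burst-and-steady-state model to give the pre-steady-state cleavage rate (min^-1; k3 is constrained to at most 1e-4). Sequence is the target site only; target names encode pairing extent (gX:gY) and contiguous / 1-mismatch / 2-mismatch / bulge geometry. Fits with R² ≤ 0 are excluded.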
row,Sequence,pre-steady-state target cleavage rate
1,CUUAAGGAGACCUAGAUGUGGGUUACCUAG [g2:g12:cont:t1G],0.000253 ± 0.032
2,CUUAAGGACUGGAUCUACUGGGUUACCAUAA,0.0062 ± 0.0082
3,CUUAAGGAGACCUAGUACUGGGUUACCUAA,0.000567 ± 0.0079
4,CUUAAGGAGACCUUCGUACUGGGUUACCUAA,0.000769 ± 0.021
5,CUUAAGGAGACGAUCUACUGGGUUACUUAA,0.000826 ± 0.012
6,CUUAAGGAGACGAUCUACUGGGUUACCCAA,0.00186 ± 0.007
7,CUUAAGGAGACGAUCUACUGGAUUACCUAA,0.00108 ± 0.015
8,CUUAAGGAGACGAUCUACAGGGUUACGUAA,0.000591 ± 0.0082
9,CUUAAGCACUGGAUCUACUCGGUUACCUAA,0.000739 ± 0.022
10,CUUAAGGAGACGAUCUACUGGGUUACGCUAA,0.000629 ± 0.01
11,CUUAAGGAGACGAUCCACUGGGUUACCUAA,0.00487 ± 0.0056
12,CUUAAGGAGACCUAGAUCUCCGUUACCUAA,0.000395 ± 0.023
13,CUUAUCCUCUGGUUCUACUGGGUUUCCUAA,2.2 ± 1.7
14,CUUAAGGAGACCAUCUUCUGCGUUACCUAA,0.000704 ± 0.0085
15,CUUAAGGAGACCAUCAACUGGCUUACCUAA,0.000182 ± 0.035
16,CUUAAGGUCUGGAUCUACUGGGUAACCAAA,0.000926 ± 0.011
17,CUUAAGGAGAGGAUCCUACUGGGUUACCUAA,0.000939 ± 0.0058
18,CUUAAGGAGACCAUCUACUGGGUAUACCUAA,0.000713 ± 0.014
19,CUUAAGGUCUGGAUCUAGACGGUUACCUAA,0.00126 ± 0.01
20,CUUAAGGACUCGAUCUACUCGGUUACCUAA,0.000356 ± 0.039

# Taken from above:
# CUUAAGGAGACGAUCUACUGGGUUACGCUAA – pre-steady-state target cleavage rate: 0.000629 ± 0.01
# CUUAAGGACUGGAUCUACUGGGUUACCAUAA – pre-steady-state target cleavage rate: 0.0062 ± 0.0082

# (list continues)

row,Sequence,pre-steady-state target cleavage rate
1,CUUAAGGAGACCUUCUACUGGGUUACGUAA,0.000752 ± 0.011
2,CUUAAGGAGUGCAUCUACUGGGUUACGUAA,0.000759 ± 0.0099
3,CUUAAGGACUGGAUCUAGUGCGUUACCUAA,0.00155 ± 0.012
4,CUUAAGGAGACGAUCUACUCGGGUUACCUAA,0.000875 ± 0.013
5,CUUAAGGAGUGGAUCUCUGGGUUACCUAA,0.000774 ± 0.03
6,CUUAAGGAGUGGAUCUACUGGAUUACCUAA,0.00236 ± 0.0092
7,CUUAUCCUCUGGAUCUUCUGGCUUACCUAA,0.000416 ± 0.026
8,CUUAAGGAGACGAUCUACUGGGUUACGUUA,0.000486 ± 0.019
9,CUUAUCCUCUGGGAUCUACUGGGUUACCUAA,0.137 ± 0.023
10,CUUAAGGUCUGGAUCUACUGCGAUACCUAA,0.000891 ± 0.013
11,CUUAAGGAGUGGAUCUACUGGGUAUCCUAA,0.00173 ± 0.0056
12,CUUAAGGAGACCAUCUACUGGGUUACCAA,0.000568 ± 0.016
13,CUUAUCCUCUGGAUCUAGACCCAAUGGAUA [g14:g26:cont:t1A],0.000373 ± 0.024
14,CUUAAGGAGUGCAUCUACUGGGUUACCAAA,0.00197 ± 0.0061
15,CUUAAGCUCUGGAACUACUGGCUUACCUAA,0.00125 ± 0.0082
16,CUUAAGGAGAGGAUCAACAGGGUUACCUAA,0.000359 ± 0.011
17,CUUAAGGAGACCUAGUACUGGGUUACCUCAA,0.000341 ± 0.031
18,CUUAACCUCAGCAUCUACUGGGUUACCUAA,0.111 ± 0.027
19,CUUAAGGUCUGGAUCUACUCGGGUUACCUAA,0.000576 ± 0.02

# — the supplement of paper PMC10338343
